Data from paper doi:10.1101/2020.11.30.405449.
No constants are given. Whether binding was seen depends on the method and setting. In cells and extracts the contact can be indirect. Some entries that bind do so weakly or less than the wild type. Blank lines part the entries; values can stand above or below the substance they belong to.

Sequences of proteins named here, by UniProt entry; tags and fusion partners are left off.
UniProt Q9UPY3: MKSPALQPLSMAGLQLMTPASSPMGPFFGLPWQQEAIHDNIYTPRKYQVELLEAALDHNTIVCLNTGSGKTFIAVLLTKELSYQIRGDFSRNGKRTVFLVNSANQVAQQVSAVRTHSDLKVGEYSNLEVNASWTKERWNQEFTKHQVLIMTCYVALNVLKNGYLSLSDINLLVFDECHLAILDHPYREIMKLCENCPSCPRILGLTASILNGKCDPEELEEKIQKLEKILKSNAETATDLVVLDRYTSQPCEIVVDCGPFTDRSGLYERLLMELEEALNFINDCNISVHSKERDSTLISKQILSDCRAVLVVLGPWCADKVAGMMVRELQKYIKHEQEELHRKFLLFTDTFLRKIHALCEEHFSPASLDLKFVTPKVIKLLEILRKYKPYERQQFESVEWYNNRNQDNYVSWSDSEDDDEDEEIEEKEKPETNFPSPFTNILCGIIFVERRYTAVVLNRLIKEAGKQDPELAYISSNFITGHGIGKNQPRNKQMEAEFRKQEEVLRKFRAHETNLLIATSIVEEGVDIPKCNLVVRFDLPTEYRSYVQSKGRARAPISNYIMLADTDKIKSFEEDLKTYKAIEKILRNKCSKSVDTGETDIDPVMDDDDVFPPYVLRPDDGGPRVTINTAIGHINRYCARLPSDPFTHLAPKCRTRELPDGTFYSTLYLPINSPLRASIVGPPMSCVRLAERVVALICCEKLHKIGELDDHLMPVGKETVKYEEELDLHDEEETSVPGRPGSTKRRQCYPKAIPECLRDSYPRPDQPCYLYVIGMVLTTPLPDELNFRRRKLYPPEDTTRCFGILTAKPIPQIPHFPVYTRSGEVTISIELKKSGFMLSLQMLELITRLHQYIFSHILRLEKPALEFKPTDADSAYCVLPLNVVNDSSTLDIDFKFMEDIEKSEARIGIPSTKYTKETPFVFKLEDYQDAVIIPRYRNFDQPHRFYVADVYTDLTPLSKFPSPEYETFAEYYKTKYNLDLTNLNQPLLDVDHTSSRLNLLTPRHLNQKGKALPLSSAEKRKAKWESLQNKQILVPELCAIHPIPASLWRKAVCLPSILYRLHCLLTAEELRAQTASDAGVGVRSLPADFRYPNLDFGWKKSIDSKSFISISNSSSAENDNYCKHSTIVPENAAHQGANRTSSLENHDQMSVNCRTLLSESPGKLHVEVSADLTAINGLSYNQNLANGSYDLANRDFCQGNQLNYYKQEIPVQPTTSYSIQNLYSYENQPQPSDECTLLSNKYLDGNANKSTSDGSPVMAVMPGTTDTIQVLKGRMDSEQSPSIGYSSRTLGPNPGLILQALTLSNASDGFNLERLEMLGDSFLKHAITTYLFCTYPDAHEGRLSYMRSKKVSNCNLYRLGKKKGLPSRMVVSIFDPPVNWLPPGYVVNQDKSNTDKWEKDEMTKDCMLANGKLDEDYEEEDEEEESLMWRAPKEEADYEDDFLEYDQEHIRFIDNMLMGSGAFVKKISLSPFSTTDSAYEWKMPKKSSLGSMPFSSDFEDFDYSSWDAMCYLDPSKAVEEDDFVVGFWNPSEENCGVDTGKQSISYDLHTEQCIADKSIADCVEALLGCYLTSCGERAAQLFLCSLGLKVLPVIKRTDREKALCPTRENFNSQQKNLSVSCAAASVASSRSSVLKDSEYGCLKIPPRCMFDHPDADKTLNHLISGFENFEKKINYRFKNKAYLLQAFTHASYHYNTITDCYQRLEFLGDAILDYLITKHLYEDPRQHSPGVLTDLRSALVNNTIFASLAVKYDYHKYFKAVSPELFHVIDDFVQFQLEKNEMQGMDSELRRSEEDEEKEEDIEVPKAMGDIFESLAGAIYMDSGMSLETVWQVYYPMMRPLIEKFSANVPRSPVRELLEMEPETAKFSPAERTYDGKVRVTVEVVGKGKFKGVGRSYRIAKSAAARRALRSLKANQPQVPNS
UniProt Q9UKV8: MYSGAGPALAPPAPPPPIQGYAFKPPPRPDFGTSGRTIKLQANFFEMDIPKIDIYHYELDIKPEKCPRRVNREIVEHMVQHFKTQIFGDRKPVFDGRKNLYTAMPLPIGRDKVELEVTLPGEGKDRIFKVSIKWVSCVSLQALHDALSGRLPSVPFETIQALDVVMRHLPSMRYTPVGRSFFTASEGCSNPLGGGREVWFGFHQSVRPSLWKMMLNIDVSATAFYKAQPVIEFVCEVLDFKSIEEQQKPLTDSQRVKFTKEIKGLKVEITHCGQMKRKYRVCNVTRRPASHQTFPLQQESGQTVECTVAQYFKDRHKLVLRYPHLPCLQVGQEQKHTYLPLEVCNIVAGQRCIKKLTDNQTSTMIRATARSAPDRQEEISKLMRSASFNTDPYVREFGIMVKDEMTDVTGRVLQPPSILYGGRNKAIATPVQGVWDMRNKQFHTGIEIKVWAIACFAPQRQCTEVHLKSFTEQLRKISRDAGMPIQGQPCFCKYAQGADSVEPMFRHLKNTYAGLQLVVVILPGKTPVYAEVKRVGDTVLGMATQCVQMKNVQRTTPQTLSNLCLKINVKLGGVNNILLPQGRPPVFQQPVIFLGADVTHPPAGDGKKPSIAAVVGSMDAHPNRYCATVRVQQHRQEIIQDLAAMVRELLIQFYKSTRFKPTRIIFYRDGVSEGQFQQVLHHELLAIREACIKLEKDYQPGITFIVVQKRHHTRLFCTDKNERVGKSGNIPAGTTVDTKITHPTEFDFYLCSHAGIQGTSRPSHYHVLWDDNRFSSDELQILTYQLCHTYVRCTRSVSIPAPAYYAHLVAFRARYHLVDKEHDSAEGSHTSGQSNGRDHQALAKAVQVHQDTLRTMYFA
UniProt Q8IZH2: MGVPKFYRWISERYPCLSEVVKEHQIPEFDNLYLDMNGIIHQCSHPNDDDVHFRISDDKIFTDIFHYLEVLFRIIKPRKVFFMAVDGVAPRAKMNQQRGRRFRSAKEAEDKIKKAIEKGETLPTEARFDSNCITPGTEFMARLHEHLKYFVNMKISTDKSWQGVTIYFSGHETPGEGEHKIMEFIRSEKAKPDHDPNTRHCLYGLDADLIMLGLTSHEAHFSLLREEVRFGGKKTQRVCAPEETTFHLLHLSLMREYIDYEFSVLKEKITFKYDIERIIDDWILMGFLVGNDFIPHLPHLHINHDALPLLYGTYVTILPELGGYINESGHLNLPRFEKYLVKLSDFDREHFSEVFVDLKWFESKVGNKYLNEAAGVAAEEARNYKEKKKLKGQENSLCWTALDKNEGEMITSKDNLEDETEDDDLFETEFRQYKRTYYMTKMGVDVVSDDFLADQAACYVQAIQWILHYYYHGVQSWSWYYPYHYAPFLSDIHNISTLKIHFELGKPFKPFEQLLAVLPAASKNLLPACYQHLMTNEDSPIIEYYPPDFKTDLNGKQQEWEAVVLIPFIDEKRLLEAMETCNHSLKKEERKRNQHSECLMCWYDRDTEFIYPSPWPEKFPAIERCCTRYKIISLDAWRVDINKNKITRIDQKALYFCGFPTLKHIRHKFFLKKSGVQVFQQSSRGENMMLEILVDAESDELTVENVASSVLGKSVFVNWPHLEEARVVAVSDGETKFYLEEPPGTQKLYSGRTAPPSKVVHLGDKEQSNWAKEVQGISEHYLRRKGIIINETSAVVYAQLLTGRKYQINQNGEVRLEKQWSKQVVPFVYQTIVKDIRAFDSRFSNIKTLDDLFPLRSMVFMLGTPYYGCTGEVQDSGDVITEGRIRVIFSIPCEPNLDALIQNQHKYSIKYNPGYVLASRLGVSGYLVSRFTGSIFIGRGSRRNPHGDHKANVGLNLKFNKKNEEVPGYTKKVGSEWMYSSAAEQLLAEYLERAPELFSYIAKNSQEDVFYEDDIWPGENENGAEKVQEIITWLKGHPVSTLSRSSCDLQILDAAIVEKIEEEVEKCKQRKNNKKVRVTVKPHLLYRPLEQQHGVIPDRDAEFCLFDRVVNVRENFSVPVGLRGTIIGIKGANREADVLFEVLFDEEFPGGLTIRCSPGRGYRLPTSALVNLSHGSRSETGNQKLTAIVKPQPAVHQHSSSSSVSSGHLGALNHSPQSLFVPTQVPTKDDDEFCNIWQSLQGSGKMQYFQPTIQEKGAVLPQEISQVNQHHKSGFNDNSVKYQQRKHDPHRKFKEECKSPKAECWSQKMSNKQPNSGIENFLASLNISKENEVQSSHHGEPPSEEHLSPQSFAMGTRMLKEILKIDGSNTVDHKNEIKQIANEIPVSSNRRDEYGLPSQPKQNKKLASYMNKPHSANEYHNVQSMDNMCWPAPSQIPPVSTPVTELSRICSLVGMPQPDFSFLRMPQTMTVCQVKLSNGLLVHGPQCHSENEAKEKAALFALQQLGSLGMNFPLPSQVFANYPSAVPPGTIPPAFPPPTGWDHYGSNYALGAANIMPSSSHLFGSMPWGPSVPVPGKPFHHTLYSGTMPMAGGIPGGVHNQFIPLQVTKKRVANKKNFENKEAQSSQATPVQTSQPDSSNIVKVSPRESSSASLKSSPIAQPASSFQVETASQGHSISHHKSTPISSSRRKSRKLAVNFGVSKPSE

Legend:
Assay in all cases: co-IP
[1] = target: NH-Dicer1, expressed in HEK293 cells (UniProt Q9UPY3)
[2] = target: NH-Dicer1 (HA-tagged Dicer1), transiently expressed in Huh7 cells (UniProt Q9UPY3)
[3] = target: Dicer1, endogenous in Huh7 cells (human (endogenous in Huh7)) (UniProt Q9UPY3)
[4] = target: FA-Ago2, transiently expressed in Huh7 cells (UniProt Q9UKV8)

- binding [1]: binds
Substance: Ago2, endogenous in HEK293 cells (from UniProt Q9UKV8 1-859)

- binding [2]: binds
- binding [3]: binds
Substance: Ago2, endogenous in Huh7 cells (from UniProt Q9UKV8 1-859)

- binding [4]: binds
Substance: Xrn1, endogenous in Huh7 cells (from UniProt Q8IZH2 1-1706) (enzyme)
